Data published in the supplement of paper PMC10849652.
The other results are listed elsewhere or left out.

By UniProt entry, the sequences of proteins in these tests, tags left out. Where a name states a change or a piece, a line headed by the entry shows the natural chain unless it says otherwise.
UniProt Q96MY1: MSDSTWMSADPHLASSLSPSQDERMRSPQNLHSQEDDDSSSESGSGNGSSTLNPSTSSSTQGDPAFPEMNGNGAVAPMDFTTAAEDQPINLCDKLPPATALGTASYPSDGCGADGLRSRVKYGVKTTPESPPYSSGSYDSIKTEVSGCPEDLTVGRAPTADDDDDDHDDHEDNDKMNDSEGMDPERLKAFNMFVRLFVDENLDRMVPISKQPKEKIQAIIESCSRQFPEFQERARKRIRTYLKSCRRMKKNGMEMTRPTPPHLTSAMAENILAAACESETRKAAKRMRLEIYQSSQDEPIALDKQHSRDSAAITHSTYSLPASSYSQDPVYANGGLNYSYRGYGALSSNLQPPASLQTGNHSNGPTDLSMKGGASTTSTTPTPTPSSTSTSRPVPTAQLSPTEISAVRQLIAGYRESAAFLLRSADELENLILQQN
UniProt Q8WTT2: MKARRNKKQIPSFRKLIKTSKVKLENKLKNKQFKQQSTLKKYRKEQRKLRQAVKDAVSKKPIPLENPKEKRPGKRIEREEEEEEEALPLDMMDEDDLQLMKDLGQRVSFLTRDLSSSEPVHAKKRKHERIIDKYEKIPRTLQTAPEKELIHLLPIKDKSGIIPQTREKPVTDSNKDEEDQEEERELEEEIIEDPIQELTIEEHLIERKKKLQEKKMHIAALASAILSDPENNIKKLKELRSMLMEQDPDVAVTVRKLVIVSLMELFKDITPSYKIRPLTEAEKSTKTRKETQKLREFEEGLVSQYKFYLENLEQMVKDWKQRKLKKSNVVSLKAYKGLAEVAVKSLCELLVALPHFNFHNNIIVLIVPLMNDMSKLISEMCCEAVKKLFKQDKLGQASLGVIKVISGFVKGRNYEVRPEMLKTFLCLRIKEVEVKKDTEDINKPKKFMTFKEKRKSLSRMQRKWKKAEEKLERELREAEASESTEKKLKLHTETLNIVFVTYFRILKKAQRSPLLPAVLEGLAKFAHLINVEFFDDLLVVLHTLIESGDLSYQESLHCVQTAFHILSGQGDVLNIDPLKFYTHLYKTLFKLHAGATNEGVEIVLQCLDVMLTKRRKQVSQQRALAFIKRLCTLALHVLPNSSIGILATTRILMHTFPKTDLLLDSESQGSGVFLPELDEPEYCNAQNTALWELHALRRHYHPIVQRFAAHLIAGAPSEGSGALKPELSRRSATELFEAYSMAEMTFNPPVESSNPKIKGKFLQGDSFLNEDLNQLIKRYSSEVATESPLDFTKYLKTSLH
UniProt O95644: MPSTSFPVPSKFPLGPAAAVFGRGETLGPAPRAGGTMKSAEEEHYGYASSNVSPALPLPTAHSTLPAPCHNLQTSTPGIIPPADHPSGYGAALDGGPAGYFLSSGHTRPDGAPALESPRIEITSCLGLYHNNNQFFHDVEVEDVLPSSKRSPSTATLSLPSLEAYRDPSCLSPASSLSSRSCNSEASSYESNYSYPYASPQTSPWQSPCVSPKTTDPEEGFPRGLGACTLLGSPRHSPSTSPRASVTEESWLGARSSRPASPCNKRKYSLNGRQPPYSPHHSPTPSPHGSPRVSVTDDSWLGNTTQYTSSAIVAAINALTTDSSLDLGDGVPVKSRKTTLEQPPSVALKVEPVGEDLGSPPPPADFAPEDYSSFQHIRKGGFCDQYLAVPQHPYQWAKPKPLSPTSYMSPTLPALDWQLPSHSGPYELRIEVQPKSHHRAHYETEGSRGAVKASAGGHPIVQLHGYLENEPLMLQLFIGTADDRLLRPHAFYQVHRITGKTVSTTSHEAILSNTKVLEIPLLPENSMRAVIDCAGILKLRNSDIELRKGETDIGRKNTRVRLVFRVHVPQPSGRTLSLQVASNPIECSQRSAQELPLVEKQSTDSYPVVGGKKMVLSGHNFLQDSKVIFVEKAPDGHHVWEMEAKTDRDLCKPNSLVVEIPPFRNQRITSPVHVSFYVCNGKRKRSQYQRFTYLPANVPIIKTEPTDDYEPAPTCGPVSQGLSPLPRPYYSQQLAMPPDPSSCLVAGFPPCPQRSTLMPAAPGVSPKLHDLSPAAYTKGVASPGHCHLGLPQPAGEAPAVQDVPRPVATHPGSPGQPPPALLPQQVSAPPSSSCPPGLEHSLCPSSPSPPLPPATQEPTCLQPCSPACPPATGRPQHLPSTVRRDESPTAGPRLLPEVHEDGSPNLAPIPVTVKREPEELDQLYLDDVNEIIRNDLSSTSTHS
UniProt Q9BVI4: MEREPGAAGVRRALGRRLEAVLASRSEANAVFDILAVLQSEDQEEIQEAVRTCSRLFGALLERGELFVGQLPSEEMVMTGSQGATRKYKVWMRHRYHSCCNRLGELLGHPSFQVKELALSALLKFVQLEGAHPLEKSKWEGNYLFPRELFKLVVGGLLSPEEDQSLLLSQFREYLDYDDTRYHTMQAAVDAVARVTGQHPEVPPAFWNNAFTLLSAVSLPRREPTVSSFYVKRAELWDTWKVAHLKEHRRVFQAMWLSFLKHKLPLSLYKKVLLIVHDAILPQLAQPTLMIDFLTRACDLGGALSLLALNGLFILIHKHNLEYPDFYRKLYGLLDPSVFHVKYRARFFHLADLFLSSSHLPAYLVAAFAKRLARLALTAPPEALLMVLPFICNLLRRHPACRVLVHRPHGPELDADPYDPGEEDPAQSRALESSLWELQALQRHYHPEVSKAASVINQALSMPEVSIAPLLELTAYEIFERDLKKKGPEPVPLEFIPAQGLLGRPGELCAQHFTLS
UniProt Q14494: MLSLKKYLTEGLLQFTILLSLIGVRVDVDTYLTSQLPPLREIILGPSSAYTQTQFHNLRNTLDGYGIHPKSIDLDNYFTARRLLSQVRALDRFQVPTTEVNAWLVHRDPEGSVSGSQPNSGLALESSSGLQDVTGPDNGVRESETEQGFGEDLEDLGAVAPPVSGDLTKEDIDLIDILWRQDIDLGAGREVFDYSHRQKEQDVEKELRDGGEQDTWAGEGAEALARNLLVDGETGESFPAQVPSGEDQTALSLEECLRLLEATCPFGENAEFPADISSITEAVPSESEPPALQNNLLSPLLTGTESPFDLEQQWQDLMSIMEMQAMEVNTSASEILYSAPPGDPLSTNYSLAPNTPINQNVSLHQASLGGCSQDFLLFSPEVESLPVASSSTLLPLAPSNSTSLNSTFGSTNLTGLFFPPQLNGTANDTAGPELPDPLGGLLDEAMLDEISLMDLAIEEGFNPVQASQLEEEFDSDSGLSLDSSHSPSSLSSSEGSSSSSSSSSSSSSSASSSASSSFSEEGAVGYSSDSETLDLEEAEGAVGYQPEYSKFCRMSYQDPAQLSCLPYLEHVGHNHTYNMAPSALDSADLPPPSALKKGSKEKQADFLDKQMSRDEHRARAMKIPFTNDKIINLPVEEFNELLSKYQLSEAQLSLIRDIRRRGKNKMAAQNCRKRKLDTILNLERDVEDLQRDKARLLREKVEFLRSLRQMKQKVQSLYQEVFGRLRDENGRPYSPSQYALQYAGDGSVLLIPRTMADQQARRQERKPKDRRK
UniProt P04150: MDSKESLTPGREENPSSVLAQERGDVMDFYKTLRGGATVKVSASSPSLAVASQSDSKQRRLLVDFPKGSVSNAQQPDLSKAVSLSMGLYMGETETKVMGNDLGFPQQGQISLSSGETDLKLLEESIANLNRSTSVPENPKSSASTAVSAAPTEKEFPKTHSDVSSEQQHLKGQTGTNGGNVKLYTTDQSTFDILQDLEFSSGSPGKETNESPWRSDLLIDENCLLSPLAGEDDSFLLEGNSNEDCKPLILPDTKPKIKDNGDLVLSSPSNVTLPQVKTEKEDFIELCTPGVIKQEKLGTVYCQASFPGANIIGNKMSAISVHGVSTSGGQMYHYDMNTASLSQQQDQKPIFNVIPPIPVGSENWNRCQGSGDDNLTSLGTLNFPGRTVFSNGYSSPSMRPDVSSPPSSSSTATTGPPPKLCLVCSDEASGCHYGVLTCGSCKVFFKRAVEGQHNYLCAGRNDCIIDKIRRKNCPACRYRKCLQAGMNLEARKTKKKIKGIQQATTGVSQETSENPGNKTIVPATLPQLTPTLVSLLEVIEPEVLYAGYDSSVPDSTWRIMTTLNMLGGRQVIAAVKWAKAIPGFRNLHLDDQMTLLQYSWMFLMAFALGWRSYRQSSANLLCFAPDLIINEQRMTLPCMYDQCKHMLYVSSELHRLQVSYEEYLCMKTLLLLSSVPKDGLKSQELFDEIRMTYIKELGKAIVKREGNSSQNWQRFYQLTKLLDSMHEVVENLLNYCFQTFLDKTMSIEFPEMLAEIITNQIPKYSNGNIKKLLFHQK
UniProt Q8IXH7, whole entry, looked up: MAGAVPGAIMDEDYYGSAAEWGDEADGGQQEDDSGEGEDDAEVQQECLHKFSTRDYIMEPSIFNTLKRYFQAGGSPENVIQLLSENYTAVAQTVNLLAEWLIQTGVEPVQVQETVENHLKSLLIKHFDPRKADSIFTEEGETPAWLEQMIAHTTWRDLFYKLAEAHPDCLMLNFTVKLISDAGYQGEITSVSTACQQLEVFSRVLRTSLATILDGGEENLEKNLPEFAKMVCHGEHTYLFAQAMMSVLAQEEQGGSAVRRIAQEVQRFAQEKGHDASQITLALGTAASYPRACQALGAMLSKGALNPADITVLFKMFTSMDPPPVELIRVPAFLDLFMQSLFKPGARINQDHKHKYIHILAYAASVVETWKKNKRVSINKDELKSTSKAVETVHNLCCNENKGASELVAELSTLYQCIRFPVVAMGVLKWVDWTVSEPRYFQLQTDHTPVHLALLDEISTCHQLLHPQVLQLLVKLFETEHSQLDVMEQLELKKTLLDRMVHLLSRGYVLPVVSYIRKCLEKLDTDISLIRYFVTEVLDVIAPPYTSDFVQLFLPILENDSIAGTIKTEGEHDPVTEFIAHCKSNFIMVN
UniProt Q9GZP1: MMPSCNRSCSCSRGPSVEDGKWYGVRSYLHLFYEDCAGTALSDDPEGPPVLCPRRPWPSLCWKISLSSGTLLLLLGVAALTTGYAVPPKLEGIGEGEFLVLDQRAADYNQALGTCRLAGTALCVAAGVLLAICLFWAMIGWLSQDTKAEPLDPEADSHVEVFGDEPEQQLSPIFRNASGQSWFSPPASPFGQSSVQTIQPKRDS
UniProt P30414: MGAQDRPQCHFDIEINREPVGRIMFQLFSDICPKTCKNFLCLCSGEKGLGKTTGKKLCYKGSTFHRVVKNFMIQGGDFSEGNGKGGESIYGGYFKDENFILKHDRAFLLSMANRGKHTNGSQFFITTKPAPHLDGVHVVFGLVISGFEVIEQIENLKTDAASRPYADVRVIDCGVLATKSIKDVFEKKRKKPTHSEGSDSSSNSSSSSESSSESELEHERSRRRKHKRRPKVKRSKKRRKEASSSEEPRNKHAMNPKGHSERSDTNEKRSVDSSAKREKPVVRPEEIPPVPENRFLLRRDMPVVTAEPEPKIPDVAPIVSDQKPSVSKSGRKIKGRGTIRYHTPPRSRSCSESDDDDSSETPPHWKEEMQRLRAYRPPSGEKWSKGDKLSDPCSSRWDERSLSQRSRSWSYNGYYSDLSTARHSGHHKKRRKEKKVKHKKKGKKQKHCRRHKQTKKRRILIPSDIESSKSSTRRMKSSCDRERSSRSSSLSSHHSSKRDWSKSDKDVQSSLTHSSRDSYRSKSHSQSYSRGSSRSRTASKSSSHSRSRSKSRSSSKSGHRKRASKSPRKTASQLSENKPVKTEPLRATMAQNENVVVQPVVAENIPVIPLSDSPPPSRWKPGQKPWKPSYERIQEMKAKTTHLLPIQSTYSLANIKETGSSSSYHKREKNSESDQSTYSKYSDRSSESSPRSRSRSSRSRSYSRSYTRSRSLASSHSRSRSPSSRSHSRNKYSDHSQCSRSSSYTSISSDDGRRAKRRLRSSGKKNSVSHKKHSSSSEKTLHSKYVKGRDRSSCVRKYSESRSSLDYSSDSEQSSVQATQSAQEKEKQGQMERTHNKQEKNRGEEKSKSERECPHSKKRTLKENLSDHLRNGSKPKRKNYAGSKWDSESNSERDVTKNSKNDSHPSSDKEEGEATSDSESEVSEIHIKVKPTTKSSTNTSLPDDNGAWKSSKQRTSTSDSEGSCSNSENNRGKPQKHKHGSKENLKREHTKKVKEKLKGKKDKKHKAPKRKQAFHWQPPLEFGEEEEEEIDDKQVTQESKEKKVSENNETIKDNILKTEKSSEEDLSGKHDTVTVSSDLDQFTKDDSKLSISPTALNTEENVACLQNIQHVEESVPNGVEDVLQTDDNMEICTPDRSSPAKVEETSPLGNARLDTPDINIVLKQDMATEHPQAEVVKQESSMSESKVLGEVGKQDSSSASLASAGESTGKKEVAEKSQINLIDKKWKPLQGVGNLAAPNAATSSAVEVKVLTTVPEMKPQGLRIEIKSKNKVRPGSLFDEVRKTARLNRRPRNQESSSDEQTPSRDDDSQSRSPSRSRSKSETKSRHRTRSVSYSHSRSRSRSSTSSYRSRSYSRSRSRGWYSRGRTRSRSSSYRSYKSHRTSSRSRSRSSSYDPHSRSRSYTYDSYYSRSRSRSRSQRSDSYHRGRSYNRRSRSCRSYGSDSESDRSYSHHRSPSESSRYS

Columns and labels:
Assay in all cases: log2 fold change, soluble protein after heating vs DMSO (PISA); higher = thermal stabilisation; K562 cells, 10 uM, 30 min; active = over 0.2 and 3.5 SD of the protein, either way, in both replicates (recomputed)
[1] = compound: CS(=O)(=O)c1ccc(-c2cnc(N)c(C(=O)Nc3ccccc3)n2)cc1
How it was run: (§1)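 Soluble protein was defined as the supernatant after 21,000xg for 90 min. It came from K562 cells at 2×10^6 cells/mL given 10 μM compound for 30 min, heated in aliquots for 3 min across 48°C-58°C, pooled, and extracted in PBS with 0.5% NP-40 at 4°C, and was quantified by TMTpro 16plex LC-MS/MS with equalised channel sums. Thermal stability against control samples, from duplicates, is reported as log2 fold change.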

[2] = compound: C[C@@H]1COCCN1C2=NC(=NC(=C2)C3(CC3)S(=O)(=O)C)C4=C5C=CNC5=CC=C4
How it was run: as §1

[3] = compound: C[C@H](Nc1ncnc2nc[nH]c12)c1cc2cccc(Cl)c2c(=O)n1-c1ccccc1 [duvelisib]
How it was run: as §1

[4] = compound: Cc1cc(Nc2cc(N3CCN(C)CC3)nc(Sc3ccc(NC(=O)C4CC4)cc3)n2)n[nH]1 [tozasertib]
How it was run: as §1

[5] = compound: Cc1cc(SCc2sc(-c3ccc(C(F)(F)F)cc3)nc2C)ccc1OCC(=O)O
How it was run: as §1

[6] = compound: Cc1cn(-c2cc(NC(=O)c3ccc(C)c(Nc4nccc(-c5cccnc5)n4)c3)cc(C(F)(F)F)c2)cn1 [nilotinib]
How it was run: as §1

[7] = compound: Cc1nc(Nc2n[nH]c3c2CN(C(=O)N[C@H](CN(C)C)c2ccccc2)C3(C)C)c2sccc2n1
How it was run: as §1

[8] = compound: Cc1nc(Nc2ncc(C(=O)Nc3c(C)cccc3Cl)s2)cc(N2CCN(CCO)CC2)n1 [dasatinib]
How it was run: as §1

[9] = compound: Cc1ncc(-c2ccnc(Nc3ccc(S(C)(=O)=O)cc3)n2)n1C(C)C
How it was run: as §1

[10] = compound: Cc1cc(Nc2cc(CN3CCOCC3)c3nc(C)c(Cc4ccc(Cl)cc4F)n3n2)n[nH]1 [gandotinib]
How it was run: as §1

[11] = compound: Cc1ccc(NC(=O)c2ccc(CN3CC[C@H](N(C)C)C3)c(C(F)(F)F)c2)cc1Nc1nccc(-c2cncnc2)n1 [bafetinib]
How it was run: as §1

[12] = compound: Cc1cccc(CC(=O)N2CCc3c2ccc(-c2cn(C)c4ncnc(N)c24)c3F)n1
How it was run: as §1

[13] = compound: FC(F)(F)c1ccc(/C=C/c2nc(COc3ccc(CCCCn4ccnn4)cc3)co2)cc1 [mubritinib]
How it was run: as §1

[14] = compound: Cc1ccc(C(=O)N(CCCN)[C@@H](c2nc3cc(Cl)ccc3c(=O)n2Cc2ccccc2)C(C)C)cc1 [ispinesib]
How it was run: as §1

[15] = compound: Cn1cc(-c2ccc3nnc(C(F)(F)c4ccc5ncccc5c4)n3n2)cn1
How it was run: as §1

[16] = compound: Cn1cncc1[C@@](N)(c1ccc(Cl)cc1)c1ccc2c(c1)c(-c1cccc(Cl)c1)cc(=O)n2C [tipifarnib]
How it was run: as §1

[17] = compound: C[C@@H](Oc1cc(-c2cnn(C3CCNCC3)c2)cnc1N)c1c(Cl)ccc(F)c1Cl [crizotinib]
How it was run: as §1

[18] = compound: Cc1ccc(-n2nc(C(C)(C)C)cc2NC(=O)Nc2ccc(OCCN3CCOCC3)c3ccccc23)cc1 [doramapimod]
How it was run: as §1

[19] = compound: C[C@H](C1=CC=C(C=C1)C(=O)NC2=C3C=CNC3=NC=C2)N
How it was run: as §1

[20] = compound: Cn1cc(-c2ccc3c(c2)CCN3C(=O)Cc2cccc(C(F)(F)F)c2)c2c(N)ncnc21
How it was run: as §1

In the case of NOL4L (UniProt Q96MY1), the log2 fold change [1] was inactive: 0.039, the log2 fold change [2] was inactive: -0.064 and the log2 fold change [3] was inactive: 0.097. The log2 fold change [4] was inactive: 0.061, the log2 fold change [5] was inactive: -0.091 and the log2 fold change [6] was inactive: -0.126. The log2 fold change [7] was inactive: -0.015, the log2 fold change [8] was inactive: 0.036 and the log2 fold change [9] was inactive: -0.018.

For NOC3L (UniProt Q8WTT2), the log2 fold change [2] was inactive: 0.14, the log2 fold change [10] was inactive: -0.122 and the log2 fold change [11] was inactive: -0.125. The log2 fold change [12] was inactive: -0.277, the log2 fold change [6] was inactive: -0.044 and the log2 fold change [7] was inactive: 0.014. The log2 fold change [9] was inactive: -0.004 and the log2 fold change [13] was inactive: 0.128.

In the case of NEO1 (UniProt Q92859), the log2 fold change [4] was inactive: -0.097, the log2 fold change [14] was inactive: 0.028 and the log2 fold change [6] was inactive: 0.013. The log2 fold change [7] was inactive: -0.038, the log2 fold change [9] was inactive: -0.116 and the log2 fold change [15] was inactive: 0.033. The log2 fold change [13] was inactive: 0.

NFATC1 (UniProt O95644) was tested, and the log2 fold change [1] was inactive: 0.065, the log2 fold change [2] was inactive: -0.352 and the log2 fold change [16] was inactive: 0.076. The log2 fold change [13] was inactive: -0.164.

For NOSTRIN isoform 4 (UniProt Q8IVI9), the log2 fold change [1] was inactive: -0.031, the log2 fold change [14] was inactive: -0.449 and the log2 fold change [6] was inactive: 0.108. The log2 fold change [7] was inactive: -0.123, the log2 fold change [9] was inactive: -0.019 and the log2 fold change [15] was inactive: -0.007. For the same target, the log2 fold change [13] was inactive: -0.39.

For NSD1 (UniProt Q96L73), the log2 fold change [1] was inactive: 0.054, the log2 fold change [17] was inactive: 0.061 and the log2 fold change [3] was inactive: -0.019. The log2 fold change [10] was inactive: 0.121, the log2 fold change [5] was inactive: -0.064 and the log2 fold change [18] was inactive: -0.019. For the same target, the log2 fold change [11] was inactive: -0.013, the log2 fold change [12] was inactive: -0.011 and the log2 fold change [6] was inactive: 0.037. For the same target, the log2 fold change [7] was inactive: 0.068, the log2 fold change [8] was inactive: 0.185 and the log2 fold change [9] was inactive: 0.013. The log2 fold change [13] was inactive: -0.013.

For NOC4L (UniProt Q9BVI4), the log2 fold change [10] was inactive: 0.033, the log2 fold change [12] was inactive: -0.145 and the log2 fold change [6] was inactive: -0.014. For the same target, the log2 fold change [7] was inactive: -0.887 and the log2 fold change [9] was inactive: 0.089.

In the case of NOTCH2 (UniProt Q04721), the log2 fold change [4] was inactive: -0.021 and the log2 fold change [11] was inactive: 0.18.

In the case of NFE2L1 (UniProt Q14494), the log2 fold change [17] was inactive: -0.159, the log2 fold change [2] was inactive: -0.071 and the log2 fold change [19] was inactive: 0.171. For the same target, the log2 fold change [10] was inactive: 0.134, the log2 fold change [4] was inactive: 0.04 and the log2 fold change [18] was inactive: 0.042. For the same target, the log2 fold change [12] was inactive: -0.18, the log2 fold change [20] was inactive: -0.113 and the log2 fold change [16] was inactive: -0.023.

With NOTCH1 (UniProt P46531) the log2 fold change [2] was inactive: 0.037, the log2 fold change [6] was inactive: -0.03 and the log2 fold change [7] was inactive: -0.254. For the same target, the log2 fold change [9] was inactive: 0.158.

For NR3C1 isoform 3 (UniProt P04150), the log2 fold change [17] was inactive: 0.138, the log2 fold change [2] was inactive: 0.008 and the log2 fold change [19] was inactive: 0.084. For the same target, the log2 fold change [3] was inactive: 0.025, the log2 fold change [4] was inactive: 0.09 and the log2 fold change [5] was inactive: -0.012. The log2 fold change [18] was inactive: 0.075, the log2 fold change [6] was inactive: 0.084 and the log2 fold change [7] was inactive: -0.009. The log2 fold change [8] was inactive: -0.205, the log2 fold change [9] was inactive: 0.025 and the log2 fold change [20] was inactive: 0.313. For the same target, the log2 fold change [16] was inactive: -0.248 and the log2 fold change [13] was inactive: -0.156.

In the case of NELFCD (UniProt Q8IXH7), the log2 fold change [17] was inactive: 0.349, the log2 fold change [2] was inactive: 0.145 and the log2 fold change [19] was inactive: 0.006. For the same target, the log2 fold change [10] was inactive: -0.327, the log2 fold change [5] was inactive: 0.249 and the log2 fold change [18] was inactive: 0.025. The log2 fold change [11] was inactive: 0.116, the log2 fold change [12] was inactive: -0.111 and the log2 fold change [6] was inactive: -0.233. The log2 fold change [7] was inactive: -0.003, the log2 fold change [8] was inactive: -0.158 and the log2 fold change [9] was inactive: 0.064. For the same target, the log2 fold change [20] was inactive: 0.061 and the log2 fold change [16] was inactive: 0.035.

With NEURL4 (UniProt Q96JN8) the log2 fold change [1] was inactive: -0.083, the log2 fold change [19] was inactive: 0.25 and the log2 fold change [3] was inactive: -0.359. The log2 fold change [5] was inactive: -0.441, the log2 fold change [14] was inactive: -0.054 and the log2 fold change [11] was inactive: -0.094. The log2 fold change [8] was inactive: 0.14, the log2 fold change [20] was inactive: 0.154 and the log2 fold change [15] was inactive: -0.073.

In the case of NRSN2 (UniProt Q9GZP1), the log2 fold change [1] was inactive: 0.162, the log2 fold change [2] was inactive: -0.028 and the log2 fold change [3] was inactive: 0.052. The log2 fold change [4] was inactive: 0.001, the log2 fold change [5] was inactive: 0.033 and the log2 fold change [8] was inactive: 0.052.

In the case of NPRL3 (UniProt Q12980), the log2 fold change [3] was inactive: -0.124, the log2 fold change [5] was inactive: -0.007 and the log2 fold change [8] was inactive: 0.141.

With NKAP (UniProt Q8N5F7) the log2 fold change [17] was inactive: -0.113, the log2 fold change [2] was inactive: -0.118 and the log2 fold change [19] was inactive: 0.013. For the same target, the log2 fold change [10] was inactive: 0.041, the log2 fold change [5] was inactive: -0.034 and the log2 fold change [18] was inactive: 0.042. The log2 fold change [14] was inactive: 0.001, the log2 fold change [11] was inactive: -0.016 and the log2 fold change [12] was inactive: -0.081. For the same target, the log2 fold change [6] was inactive: 0.059, the log2 fold change [7] was active: -0.792 and the log2 fold change [8] was inactive: 0.086. The log2 fold change [9] was inactive: 0.015, the log2 fold change [20] was inactive: -0.033 and the log2 fold change [15] was inactive: -0.253. For the same target, the log2 fold change [16] was inactive: -0.138 and the log2 fold change [13] was inactive: -0.169.

For NIPBL (UniProt Q6KC79), the log2 fold change [17] was inactive: -0.373, the log2 fold change [2] was inactive: 0.188 and the log2 fold change [4] was inactive: 0. For the same target, the log2 fold change [18] was inactive: 0.101, the log2 fold change [11] was inactive: -0.473 and the log2 fold change [16] was inactive: 0.263.

In the case of NMU (UniProt P48645), the log2 fold change [17] was inactive: 0.025, the log2 fold change [2] was inactive: -0.445 and the log2 fold change [19] was inactive: -0.026. The log2 fold change [10] was inactive: -0.159, the log2 fold change [5] was inactive: 0.127 and the log2 fold change [18] was inactive: -0.04. For the same target, the log2 fold change [14] was inactive: -0.186, the log2 fold change [11] was inactive: -0.01 and the log2 fold change [12] was inactive: 0.152. For the same target, the log2 fold change [6] was inactive: 0.011, the log2 fold change [7] was inactive: -0.022 and the log2 fold change [8] was inactive: 0.16. The log2 fold change [9] was inactive: -0.012, the log2 fold change [20] was inactive: -0.394 and the log2 fold change [15] was inactive: -0.11. The log2 fold change [16] was inactive: 0.276.

NKTR (UniProt P30414) was tested, and the log2 fold change [11] was inactive: 1.06, the log2 fold change [16] was inactive: 0.163 and the log2 fold change [13] was inactive: 0.167.

NOLC1 isoform 3 (UniProt Q14978) was tested, and the log2 fold change [19] was inactive: -0.305 and the log2 fold change [20] was inactive: -0.015.
